Assay results from the supplement of paper PMC12889115.
Some of the results follow. These are raw signals, not scaled to a control.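 In the initial screen, polymyxin B was used at a concentration that permeabilizes Salmonella's outer membrane but not its inner membrane. Maximum growth was set by DMSO wells with or without polymyxin B. Since plates varied, data were ranked per plate, and compounds giving the lowest OD600 advanced as hits.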

Test system: Salmonella enterica serovar Typhimurium SL1344
Assay: bacterial growth OD600 after 18 h with compound and polymyxin B; higher = more bacterial growth (less inhibition)
Conditions: 50 µM, Mueller-Hinton broth

Row | SMILES | bacterial growth OD600 (polymyxin B 0.75 µg/mL) | bacterial growth OD600 (polymyxin B 1 µg/mL)
1 | CS(=O)(=O)N1CCC(C2CCN(c3ncccn3)CC2)C1 (stereo not given) | 0.829 | 
2 | Cc1nonc1CN(C)C(=O)C1CCN(c2nc(-c3ccccc3)nc3c2CCC3)CC1 |  | 0.004
3 | CCn1ccnc1CN(C)C(=O)c1csc2nc(-c3ccccc3C)cn12 |  | 0.783
4 | COc1cccc(OCc2cc(C(=O)N3CCN(C4CCCCC4)CC3)n[nH]2)c1 |  | 0.863
5 | COc1ccc(C(=O)N2CCC(n3nccc3NC(=O)CC(C)C)CC2)cc1OC |  | 1.31
6 | Cc1ccc(-n2ncc3c2CC(C)(C)CC3NC2CCOCC2)cc1 (stereo not given) |  | 0.986
7 | COC(=O)CCCC(=O)N1CCCC(CCc2ccccc2)C1 (stereo not given) | 0.737 | 
8 | Cc1cccc(-c2cccc(NC(=O)C3CCCN3C(=O)c3ncoc3C)c2)c1 (stereo not given) | 0.533 | 
9 | COc1cccc(-n2cc(CN(C)Cc3nc(-c4ccccc4)no3)cn2)c1 |  | 0.787
10 | COCCCN1C(=O)CC(CC(=O)N(C)CCC2CCCCO2)(c2ccccc2OC)C1=O (stereo not given) | 0.875 | 
11 | CO[C@H]1[C@H](NC(=O)c2ccco2)c2ccccc2C12CCN(Cc1c(F)ccc(F)c1F)CC2 | 0.662 | 
12 | CN(C(=O)c1ccco1)C(Cc1ccc(F)cc1F)C1CCN(Cc2cc(Cl)ccc2O)CC1 (stereo not given) | 0.002 | 
13 | O=C(NCc1ccncc1)c1ccc(OC2CCN(C3CCCCCC3)CC2)cc1 |  | 1.04
14 | O=C(Cc1ccc(F)cc1)N1CCC(C2(c3ccccn3)NC(=O)N(CC3CCCO3)C2=O)CC1 (stereo not given) | 0.886 | 
15 | COCCN1C(=O)NC(Cc2ccc(F)cc2)(C2CCN(C(=O)CCc3ccc(C)cc3)CC2)C1=O (stereo not given) | 0.856 | 
16 | CCOC(=O)C1(Cc2ccc(F)cc2)CCCN(C(=O)c2ccc(C)s2)C1 (stereo not given) |  | 1.03
17 | CCN1CCN(C2(C(=O)NCCCC3CCCC3)Cc3ccccc3C2)CC1 | 0.005 | 
18 | CSc1ccccc1OCc1cc(C(=O)N(C)Cc2c(C)n[nH]c2C)no1 |  | 1.06
19 | COc1ccc(OC2CCN(C(=O)C3CC3)CC2)c(C(=O)NCCn2ccnc2C)c1 |  | 1.22
20 | CCOC(=O)C1CCN(C(=O)c2cc(Cn3nc(C)cc3C)[nH]n2)CC1 |  | 1.24
21 | Cc1ccn(CC(=O)NCCN2Cc3ccccc3OC(c3ccsc3)C2)n1 (stereo not given) | 0.736 | 
22 | CCC(O)C1CCN(C(=O)c2cn(C/C=C/c3ccccc3)nn2)CC1 (stereo not given) |  | 0.82
23 | CC[C@H](C)[C@H](NC(=O)c1ccc(OC2CCN(C(C)=O)CC2)c(OC)c1)C(=O)OC |  | 0.92
24 | COCCN(CC1CCN(Cc2ccccc2OC)CC1)C(=O)C1CC=CCC1 (stereo not given) |  | 0.909
25 | O=C(CCC1CCN(C(=O)NC2CCCCC2)CC1)Nc1ccccc1 |  | 0.909
26 | COCC(=O)Nc1cc(C(=O)N2CCCCC2c2nccs2)cc2nc(-c3cccnc3)n(C)c12 (stereo not given) | 0.863 | 
27 | c1csc(C2CCCN2c2nc3nonc3nc2NC2CCCC2)n1 (stereo not given) |  | 0.675
28 | O=C(Cn1nnnc1CN1CCOCC1)N1CCN(C2CCc3ccccc3C2)CC1 (stereo not given) |  | 0.96
29 | CCCN1CCC(NC2CC(=O)N(Cc3cccc(F)c3)C2)CC1 (stereo not given) |  | 0.824
30 | Cc1ccc(NC2CCCN(C(=O)c3cn4ccsc4n3)C2)cc1C (stereo not given) |  | 1.32

Some of the entries above, set out differently:
Row	SMILES	bacterial growth OD600 (polymyxin B 0.75 µg/mL)	bacterial growth OD600 (polymyxin B 1 µg/mL)
14	O=C(Cc1ccc(F)cc1)N1CCC(C2(c3ccccn3)NC(=O)N(CC3CCCO3)C2=O)CC1 (stereo not given)	0.886	
15	COCCN1C(=O)NC(Cc2ccc(F)cc2)(C2CCN(C(=O)CCc3ccc(C)cc3)CC2)C1=O (stereo not given)	0.856	
